Some compounds share one wording; it may come from a single statement.
test: In vitro particle formation with crowding agents, inverted fluorescence microscopy; assay type: physicochemical; conditions: 30 μM CATCH(4+) and 30 μM CATCH(6−)-GFP, crowder 20 wt %, 15 minutes

Question: Which “particle formation by crowding agent” value does the source give for `CCCCCCCCCCCCOS(=O)(=O)[O-].[Na+]` [SDS, sodium dodecylsulfate] here?
Answer: unsuccessful in inducing particle formation

Question: With “Polyoxyethylene (20) sorbitan monolaurate [Tween 20]” as the compound, how does the “particle formation by crowding agent” value read?
Answer: induce particle formation

Question: For `C[C@H](CCC(=O)[O-])[C@H]1CC[C@H]2[C@@H]3CC[C@@H]4C[C@H](O)CC[C@]4(C)[C@H]3C[C@H](O)[C@]12C.[Na+]` [deoxycholate, deoxycholate sodium], which “particle formation by crowding agent” value is on record?
Answer: unsuccessful in inducing particle formation

Question: For `C[C@H](CCC(=O)NCCC[N+](C)(C)CCCS(=O)(=O)[O-])[C@H]1CC[C@H]2[C@@H]3[C@H](O)C[C@@H]4C[C@H](O)CC[C@]4(C)[C@H]3C[C@H](O)[C@]12C` [CHAPS, (3-((3-cholamidopropyl)dimethylammonio)-1-propanesulfonate)], which “particle formation by crowding agent” value is on record?
Answer: unsuccessful in inducing particle formation

Question: Which “particle formation by crowding agent” value does the source give for benzalkonium chloride here?
Answer: unsuccessful in inducing particle formation

Question: Which “particle formation by crowding agent” value does the source give for “Polyoxyethylene (20) sorbitan monooleate [Tween 80]” here?
Answer: induce particle formation

same assay, conditions: CATCH(4+) with CATCH(6−)-GFP, 15 minutes

Question: Which “effect of increasing concentration on particle size” value does the source give for “Ac-QQKFKFKFKQQ-Am (N-acetyl; C-amide; CATCH (4+)) [CATCH(4+)]” here?
Answer: increased particle size

same assay, conditions: combined with CATCH(6−)-GFP and Tween 20, 15 minutes

Question: For “Ac-QQKFKFKFKQQ-Am (N-acetyl; C-amide; CATCH (4+)) [CATCH(4+)]”, which “particle formation by peptide” value is on record?
Answer: successfully induced particle formation

Question: For “Ac-EQEFEFEFEQE-Am (N-acetyl; C-amide; CATCH (6-)) [CATCH(6−)]”, which “particle formation by peptide” value is on record?
Answer: not able induce particle formation

Question: Which “particle formation by peptide” value does the source give for “Ac-QQKPKPKPKQQ-Am (N-acetyl; C-amide; a mCATCH(+) (a mutant CATCH(+) peptide)) [mCATCH (4+)]” here?
Answer: not able induce particle formation

Question: For KQKFKFKFKQK (CATCH (6+)), which “particle formation by peptide” value is on record?
Answer: successfully induced particle formation
